Publication PMC2790608
No constants are given. Whether binding was seen depends on the method and setting. In cells and extracts the contact can be indirect.

Chains of the proteins cited; added tags and fusions are not shown.
UniProt P63208: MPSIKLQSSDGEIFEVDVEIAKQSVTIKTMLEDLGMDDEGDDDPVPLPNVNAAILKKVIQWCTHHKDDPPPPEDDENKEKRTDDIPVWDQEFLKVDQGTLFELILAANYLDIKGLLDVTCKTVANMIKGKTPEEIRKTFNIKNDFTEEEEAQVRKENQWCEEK

Target: 3X-Flag-bacterial alkaline phosphatase (BAP) [phosphatase: P00634]
Test: co-IP

binding: no binding
Substance: SKP1-GST (from UniProt P63208 1-163)
